Reference: PubChem BioAssay AID504791 (Drosophila RNAi Screening Center, 2011)
The deposit covers about 23,000 reagents; this is an unselected part of those with a known target gene and a result. Of all reagents, 199 (0.86%) got an active call. 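Plate-scaled ratios behind the calls are not deposited; printed light signals are raw; many rows marked increased or decreased are still called inactive.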 The record does not give: the direction of the score.

- Purpose: 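Factors in Argonaute-based small RNA production and activity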 (primary screen)
- Cell system: Drosophila S2-derived reporter cells
- Reagents: long dsRNA against Drosophila genes, about 150-250 ng dsRNA per well (siRNA assay); about 80-120 ng (miRNA assay)
- Timing: about 5 days (siRNA assay); about 4 days (miRNA assay)
- Conditions: copper sulfate induction of reporters: 25 µM (siRNA assay); 200 mM stated (miRNA assay), 1-2 days before reading
- Read-out: 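Dual luciferase assay: Renilla to firefly signal ratio in each well, scaled to the mean ratio of its plate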
- Units: stable assay Renilla, run 1 in luminescence; stable assay firefly, run 1 in luminescence
- Rule for the call: 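First-pass picks had plate-scaled ratios over 1.5 for the siRNA assay, over 1.6 for the miRNA assay, or under 0.6; two distinct dsRNAs had to score alike on retest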

Against NK7.1 [DRSC16755], the values are stable assay Renilla, run 1 = 7510; stable assay firefly, run 1 = 3.68e5; inactive. Silencing of CG31717 [DRSC01121] resulted in: stable assay Renilla, run 1 = 5442; stable assay firefly, run 1 = 4.31e5; inactive. After knock-down of TwdlC [DRSC14749], the screen gave stable assay Renilla, run 1 = 8087; stable assay firefly, run 1 = 4.57e5; inactive. For scb [DRSC05542], the values are stable assay Renilla, run 1 = 6751; stable assay firefly, run 1 = 3.08e5; inactive. After knock-down of scb [DRSC07678], the record shows stable assay Renilla, run 1 = 5855; stable assay firefly, run 1 = 3.09e5; inactive. Silencing of CG11438 [DRSC11660] gave: stable assay Renilla, run 1 = 7867; stable assay firefly, run 1 = 4.37e5; inactive.

Depletion of CG5504 [DRSC04701] gave: stable assay Renilla, run 1 = 17478; stable assay firefly, run 1 = 1.54e6; inactive. After knock-down of CG8726 [DRSC07250], the screen gave stable assay Renilla, run 1 = 7710; stable assay firefly, run 1 = 3.60e5; inactive. CG31661 [DRSC00296] scored stable assay Renilla, run 1 = 9261; stable assay firefly, run 1 = 4.93e5; inactive. Against chif [DRSC03508], the values are stable siRNA reporter change reporter ratio raised past the hit cutoff; stable assay Renilla, run 1 = 1.13e5; stable assay firefly, run 1 = 1.17e6; inactive. DMAP1 [DRSC06044] gave stable assay Renilla, run 1 = 6970; stable assay firefly, run 1 = 3.27e5; inactive. With knock-down of Lcp9 [DRSC04287], the record shows stable assay Renilla, run 1 = 7374; stable assay firefly, run 1 = 4.65e5; inactive.

Depletion of CG2975 [DRSC00556] came out at: stable assay Renilla, run 1 = 7414; stable assay firefly, run 1 = 4.46e5; inactive. For Fpgs1 [DRSC19857], the entry reads stable assay Renilla, run 1 = 5576; stable assay firefly, run 1 = 5.72e5; inactive. spen [DRSC00839] scored miRNA reporter change reporter ratio lowered past the hit cutoff; stable assay Renilla, run 1 = 11915; stable assay firefly, run 1 = 1.12e6; active. CG14131 [DRSC10135] scored stable assay Renilla, run 1 = 5943; stable assay firefly, run 1 = 4.20e5; inactive. After knock-down of CG5776 [DRSC02891], the screen gave stable assay Renilla, run 1 = 11540; stable assay firefly, run 1 = 1.43e6; inactive. Silencing of gbb [DRSC04687] came out at: stable assay Renilla, run 1 = 6062; stable assay firefly, run 1 = 3.22e5; inactive.

For Pgant9 [DRSC05621], the values are stable assay Renilla, run 1 = 7410; stable assay firefly, run 1 = 4.12e5; inactive. Pgant9 [DRSC06584] showed stable assay Renilla, run 1 = 6828; stable assay firefly, run 1 = 2.89e5; inactive. Against Pgant9 [DRSC07185], the values are stable assay Renilla, run 1 = 5686; stable assay firefly, run 1 = 3.74e5; inactive. Pgant9 [DRSC07186] scored stable assay Renilla, run 1 = 6675; stable assay firefly, run 1 = 3.62e5; inactive. Pgant9 [DRSC07187] scored stable assay Renilla, run 1 = 6022; stable assay firefly, run 1 = 3.65e5; inactive. After knock-down of Pgant9 [DRSC07189], the record shows stable assay Renilla, run 1 = 7118; stable assay firefly, run 1 = 3.37e5; inactive.

Against Pgant9 [DRSC21807], the entry reads stable assay Renilla, run 1 = 8181; stable assay firefly, run 1 = 3.67e5; inactive. Pgant9 [DRSC22076] showed stable assay Renilla, run 1 = 10178; stable assay firefly, run 1 = 6.86e5; inactive. mthl8 [DRSC08211] showed stable assay Renilla, run 1 = 10231; stable assay firefly, run 1 = 4.38e5; inactive. Silencing of mthl8 [DRSC08311] gave: stable assay Renilla, run 1 = 6236; stable assay firefly, run 1 = 3.62e5; inactive.
